In patent US8748105B2 (Pepscan Systems B.V., priority 2003, dated 2014) one finds cyclisation yield data, which are given here for two substances.

The nature of the data set: peptide synthesis. The conditions noted are these: cyclisation step, thioether ring, sequence written open.

Consider Ac-C VYETVRVPGSAGGADSLYTYPVATQC-NH2, for which the cyclisation yield is more than 90%.

In turn, Ac-CVYETVRVPGSAGGADSLYTYPVATQC-NH2 showed a cyclisation yield of more than 90%.
